Laboratory results reported in publication PMC6925144, “A prospective compound screening contest identified broader inhibitors for Sirtuin 1” (Scientific Reports, 2019).
The full ranking holds about 3,200 compounds; the median of “TSA(without NAD+) / Primary screening (TSA) / delta Tm (K)” is about -0.07, and the highest 2% start at about 0.37. This is one part of the list.

Protein sequences, listed by entry. Tags and fused reporters are not part of them. Residues count along the entry.
UniProt Q96EB6, 2-747 limits assumed: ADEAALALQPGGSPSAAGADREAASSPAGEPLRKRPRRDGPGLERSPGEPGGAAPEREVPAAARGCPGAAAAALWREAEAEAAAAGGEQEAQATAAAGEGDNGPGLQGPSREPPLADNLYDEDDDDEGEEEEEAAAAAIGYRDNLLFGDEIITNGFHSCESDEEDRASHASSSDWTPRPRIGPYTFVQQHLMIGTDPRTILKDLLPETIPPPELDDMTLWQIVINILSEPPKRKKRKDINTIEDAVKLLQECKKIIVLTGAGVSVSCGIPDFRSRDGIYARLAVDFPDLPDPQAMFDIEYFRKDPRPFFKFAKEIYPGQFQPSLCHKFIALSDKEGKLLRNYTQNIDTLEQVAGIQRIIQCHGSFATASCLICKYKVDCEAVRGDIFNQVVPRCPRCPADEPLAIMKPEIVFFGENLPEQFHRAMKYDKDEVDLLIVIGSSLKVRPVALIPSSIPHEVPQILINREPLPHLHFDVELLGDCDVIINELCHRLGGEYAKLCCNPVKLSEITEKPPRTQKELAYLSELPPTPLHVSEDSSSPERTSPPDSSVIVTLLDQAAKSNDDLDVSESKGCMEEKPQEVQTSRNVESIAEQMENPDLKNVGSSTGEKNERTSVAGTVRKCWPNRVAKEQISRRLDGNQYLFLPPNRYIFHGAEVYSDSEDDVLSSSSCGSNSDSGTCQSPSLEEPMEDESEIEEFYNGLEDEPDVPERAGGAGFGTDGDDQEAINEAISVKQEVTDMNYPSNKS

biological target: NAD-dependent deacetylase Sirtuin 1 (human, UniProt Q96EB6); experiment: primary screen, delta tm; design: single well (n = 1); settings: 10 µM
In short: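 Thermal shift of Sirtuin 1 measured without NAD+, compound at 10 µM (n = 1); value is ΔTm, with hits defined as ΔTm > 0.45 K or < −1.5 K. Hits retested at 5, 10, 20 µM (n = 4) and counterscreened on bovine carbonic anhydrase and ABL1 SH2 domain.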

Compound	TSA(without NAD+) / Primary screening (TSA) / delta Tm (K)
COc1ccc(Br)cc1/C=C1/Cc2ccccc2C1=O	-0.08
O=C(C1=C(O)C(=O)N(CCCN2CCOCC2)C1c1cccc([N+](=O)[O-])c1)c1ccc(F)cc1 (stereo not shown)	-0.11
CCN(C(=O)COC(=O)CN1C(=O)NC2(CCCc3ccccc32)C1=O)c1nc2ccccc2s1 (stereo not shown)	-0.12
C=CCN(C(=O)CSc1nnc(-c2ccccc2)o1)c1nc(-c2ccccc2)cs1	0.13
COc1cc(C)ccc1Oc1ccc(NC(=O)Cc2c(C)nc(-c3ccccn3)[nH]c2=O)cn1	0.29
Cn1ncc2c(=O)cc[nH]c21	-0.13
COc1ccc2[nH]cc(C3CCN(C(=O)c4coc(C)c4)CC3)c2c1	-0.03
O=C(COC(=O)c1ccc2c(c1)S(=O)(=O)c1ccccc1C2=O)Nc1ncc(Cl)cc1Cl	0.02
CC1(NC(=O)CSc2nnc(NCCc3cccs3)s2)CCS(=O)(=O)C1 (stereo not shown)	-0.03
Cc1cc(F)ccc1N1CCCC(Nc2ccc3nnnn3n2)C1 (stereo not shown)	0.63
Cc1ccc(F)c(/N=C/c2ccccc2O)c1	0.08
CC(OC(=O)C1CCCN1C(=O)C12CC3CC(CC(C3)C1)C2)C(=O)c1c[nH]c2ccccc12 (stereo not shown)	-0.02
CC(NC(=O)COC(=O)c1ccc(NS(=O)(=O)c2ccc3c(c2)OCCO3)cc1)C12CC3CC(CC(C3)C1)C2 (stereo not shown)	0.26
Cc1ccc(N(Cc2ccccc2)C(=O)N(C)Cc2cnccn2)cc1	0.02
CC(=O)Nc1ccc(NC(=O)c2cccc(C(N)=O)c2)cc1C	-0.07
c1ccc(-c2c3c(nc4sc5c(c24)CCCC5)-c2ccccc2CC3)cc1	-0.03
COc1ccc(Br)cc1/C=C1/COc2ccccc2C1=O	-0.03
O=c1cc(NCc2ccccc2Cn2cccn2)nc2ccccn12	0.12
CC(OC(=O)C1=COCCO1)C(=O)Nc1ccc(N2CCOCC2)cc1 (stereo not shown)	-0.02
C=CCOc1cccc(C2C(C(=O)c3ccc(OC)cc3)=C(O)C(=O)N2CCCN2CCOCC2)c1 (stereo not shown)	0.15

Compound	TSA(without NAD+) / Primary screening (TSA) / delta Tm (K)
O=C(CCCc1nc2ccccc2s1)Nc1cccc(S(=O)(=O)NCc2ccco2)c1	-0.18
O=C(Nc1cccc(S(=O)(=O)N2CCOCC2)c1)c1ccccc1OCc1ccccc1	0.08
Cn1c(=O)[nH]c(=O)c2c1nc(N1CCC(C(N)=O)CC1)n2CCSc1nc2ccccc2s1	0.02
CCC(CC)C(O)CN (stereo not shown)	-0.08
O=C(O)CN1C(=O)COc2ccccc21	0.02
Cc1cc(C)n(-c2cccc(N3CC(C(=O)O)CC3=O)c2)n1 (stereo not shown)	-0.03
O=C(NCCn1cnc2ccccc21)c1ccc(N2CCCCC2=O)cc1	-0.08
CC(C)N(Cc1ccccc1)C(=O)COC(=O)/C=C/c1ccc(S(=O)(=O)N2CCCCCC2)cc1	-0.08
O=C1NC(=O)C(=Cc2cn(-c3ccccc3)nc2-c2cc3ccccc3o2)C(=O)N1	-0.08
CC(OC(=O)/C=C/c1ccc2c(c1)OCO2)C(=O)Nc1cccc([N+](=O)[O-])c1 (stereo not shown)	-0.13
O=C(O)CC[C@@H](O)C(=O)O	-0.03
NC(=S)c1ccc(C(=O)N2CCCC(C(=O)NC3CC3)C2)cc1 (stereo not shown)	-0.03
O=C(NC(c1ccccc1)c1ccc2nc(C(F)(F)F)[nH]c2c1)C1=COCCO1 (stereo not shown)	-0.11
Cn1c(SCCCC(=O)c2ccccc2)nc2ccsc2c1=O	-0.17
CNC(=O)CCN(C)c1cccc(F)c1C#N	-0.11
COc1ccc(C(=O)C2=C(O)C(=O)N(CCCN3CCOCC3)C2c2ccncc2)cc1OC (stereo not shown)	-0.15
O=S(=O)(c1ccc(C(F)(F)F)cc1)N1CCNCC1	-0.12
CCOC(=O)c1sc2nc(CSc3nncn3-c3ccccc3)[nH]c(=O)c2c1C	-0.04
COc1ccc(C=C2C(=O)NC(=S)NC2=O)cc1OC	0.07
Cc1ccc(N(C)S(=O)(=O)c2cccc(C(=O)NCCCn3cnc4ccccc43)c2)cc1	-0.02

Ordered by number of heavy atoms (descending): part of the list above.
Compound	TSA(without NAD+) / Primary screening (TSA) / delta Tm (K)
Cn1c(=O)[nH]c(=O)c2c1nc(N1CCC(C(N)=O)CC1)n2CCSc1nc2ccccc2s1	0.02
O=C(Nc1cccc(S(=O)(=O)N2CCOCC2)c1)c1ccccc1OCc1ccccc1	0.08
O=C(CCCc1nc2ccccc2s1)Nc1cccc(S(=O)(=O)NCc2ccco2)c1	-0.18
O=C(NCCn1cnc2ccccc21)c1ccc(N2CCCCC2=O)cc1	-0.08
CNC(=O)CCN(C)c1cccc(F)c1C#N	-0.11

Following part.

Compound	TSA(without NAD+) / Primary screening (TSA) / delta Tm (K)
COc1cc(C=C(C(=O)NCC2CCCO2)C(=O)NCC2CCCO2)ccc1OCC(=O)Nc1ccc(C)cc1 (stereo not shown)	-0.08
COc1cc(OC)c(OC)cc1C=C1C(=O)NC(=S)NC1=O	-0.22
CC1CCc2c(sc3ncnc(N4CCC(C(N)=O)CC4)c23)C1 (stereo not shown)	0.19
CC1CCc2c(sc3ncnc(OCC(=O)N4CCc5ccccc54)c23)C1 (stereo not shown)	0.12
COc1ccccc1SCc1cc(=O)n2ccccc2n1	-0.22
CN(C)S(=O)(=O)c1cccc(NC(=S)NNc2ccnc3cc(Cl)ccc23)c1	-0.18
Cc1cccc(C(C)(C)CNC(=O)c2ccc3c(c2)NC(=O)CCN3C)c1	-0.08
Cn1cc(S(=O)(=O)Nc2ccc3c(c2)CCCN3Cc2ccccc2)cc1C(N)=O	-0.02
c1ccc2c(c1)oc1c(N3CCC(n4ccnn4)CC3)ncnc12	-0.23
CCCOc1ccc(C(=O)C2=C(O)C(=O)N(CCN3CCOCC3)C2c2ccc(OC)cc2)cc1 (stereo not shown)	0.02
Cc1ccc2[nH]c3c(c2c1)CCCC3=O	-0.15
Cc1c(C(=O)NC2CCCCCC2)oc2c1ccc1ccccc12	-0.21
COc1ccc(N2CC(=O)C(c3n(C)c4ccccc4[n+]3C)=C2N)cc1	-0.02
O=C(O)/C=C/c1nc2ccccc2s1	0.07
CC(C)(C)CN	0.06
NC(=O)C1CCN(c2ncnc3ccsc23)CC1	-0.08
O=C(NOCCC(F)(F)F)c1ccc(-c2nnc(S)o2)cc1	-0.11
NC(=O)COC(=O)c1ccc(OCC(=O)Nc2cccc(C(F)(F)F)c2)cc1	-0.02
